Taken from: PubChem BioAssay AID1259425 (University of Nebraska Medical Center, 2018)
This is a random part of about 14,000 deposited reagents. Further read-outs or replicates are left out here. No sequences are given here. Not given: the time to read-out.

Test: 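Seek colon cancer weak points whose silencing resembles KSR1 loss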 (primary screen)
Cell system: HCT116 human colon cancer cells
Reagents: siRNA pool against human genes, 50 nM siRNA
Measurement: 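mRNA of six signature genes measured together by branched-DNA assay after 50 nM siRNA pool, blank removed, divided by geometric mean of two housekeeping genes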
Scale: BNIP3L mRNA: higher = more BNIP3L transcript after knockdown; NDRG1 mRNA: higher = more NDRG1 transcript after knockdown; BNIP3 mRNA: higher = more BNIP3 transcript after knockdown

BNIP3L mRNA, set 1	NDRG1 mRNA, set 1	BNIP3 mRNA, set 1	target
0.0263	0.487	0.184	RECK
0.204	0.407	0.437	KHNYN
0.112	0.266	0.286	GSTM5
0.0926	0.0896	0.224	MRS2
0.117	0.182	0.254	EFEMP1
0.212	0.151	0.34	RNASE4
0.122	1.13	0.27	GEMIN4
0.0913	0.147	0.298	SAFB2
0.0982	0.182	0.243	REXO1
0.0766	0.118	0.249	CDC25A
0.0736	0.177	0.17	ATP6V1H
0.065	0.204	0.236	ZMYM6
0.183	1.78	0.602	GAL3ST2
0.166	0.15	0.375	MAP7
0.124	0.0574	0.307	TLK1
0.0582	0.107	0.193	CTNS
0.14	0.132	0.414	STAP2
0.0793	0.257	0.427	COL3A1
0.123	0.141	0.459	TBC1D7
0.107	0.189	0.17	PXMP4
0.257	0.371	0.455	TBC1D14
0.0938	0.377	0.311	ACOT9
0.116	0.157	0.344	GUCY1B2
0.0645	0.237	0.326	HLA-E
0.0602	0.138	0.26	NEK11
0.128	0.148	0.288	TNRC6A
0.125	0.351	0.362	UGT1A1
0.187	0.283	0.41	PARP8
0.11	0.307	0.391	ASPSCR1
0.11	0.213	0.324	ZP4
0.217	0.0678	0.293	SRMS
0.301	0.271	0.475	SPATA16
0.22	0.583	0.706	ZFAND1
0.147	0.345	0.438	MRPL15
0.0443	0.263	0.263	VIM
0.141	0.0973	0.29	TMEM138
0.0745	0.154	0.216	NEDD4
0.17	0.297	0.575	IDI2-AS1
0.0582	0.707	0.354	CCDC25
0.106	0.08	0.244	RIN1
0.0645	0.147	0.245	ERCC2
0.199	0.199	0.257	PUM1
0.0994	0.323	0.297	CHRNB2
0.0875	0.201	0.269	PMAIP1
0.103	0.228	0.465	PDCD2
0.138	0.197	0.0634	TAF7
0.0778	0.204	0.315	QTRT1
0.0333	0.438	0.304	MCF2L
0.0607	0.115	0.252	AK3
0.0774	0.258	0.307	WDR6
0.137	0.287	0.283	DNAJA3
0.0712	0.22	0.304	SVOP
0.133	0.0781	0.294	RPS19
0.115	0.308	0.249	FARS2
0.165	0.805	0.316	SUPT6H
0.156	1.94	0.221	UQCRQ
0.153	0.262	0.255	U2AF2
0.0551	0.14	0.259	EID1
0.0762	0.619	0.513	PPIG
0.0495	0.106	0.199	CYLD
0.191	0.405	0.441	TMEM258
0.0773	0.235	0.279	CEP15
0.212	0.159	0.274	SPNS1

Reprinted from the entries so far, 11 entries:
BNIP3L mRNA, set 1	NDRG1 mRNA, set 1	BNIP3 mRNA, set 1	target
0.133	0.0781	0.294	RPS19
0.115	0.308	0.249	FARS2
0.165	0.805	0.316	SUPT6H
0.156	1.94	0.221	UQCRQ
0.153	0.262	0.255	U2AF2
0.0551	0.14	0.259	EID1
0.0762	0.619	0.513	PPIG
0.0495	0.106	0.199	CYLD
0.191	0.405	0.441	TMEM258
0.0773	0.235	0.279	CEP15
0.212	0.159	0.274	SPNS1
